Measurements as given in patent publication US5847159A, “1-[ω-(3,4-dihydro-2-naphthalenyl)alkyl]-cyclic amine derivatives, process for preparing the same, and pharmaceutical composition containing the same” (priority 1995, dated 1998).
Some of these results come from one statement about several compounds together.

system: rhythmic bladder contractions (micturition reflex); experiment: Inhibitory effect on rhythmic bladder contractions (micturition reflex); format: in vivo, Female Std-Wistar rats; settings: i.d.; rat
Protocol: Inhibitory effect on rhythmic bladder contractions (micturition reflex)
The experiment was carried out according to the method of Maggi, C. […] It is generally accepted that the rhythmic bladder contractions evoked by instillation of saline solution into the bladder are mediated via the micturition reflex pathway like that of natural urination.
Female Std-Wistar rats weighing 160-190 g were used in groups of 3-4 animals. Under urethane anesthesia (1 g/kg, s.c.), both ureters were tied and cut at the side of kidney after a mid line incision of the abdomen. A cannula, connected to a syringe and a pressure transducer, was inserted into the bladder via the external urethral orifice and ligated around the proximal urethra. The animal was allowed to stay for about 30 minutes after the operation. The bladder was slowly filled with warm saline solution (0.4-1 ml) by means of a syringe until rhythmic contractions were induced. The change of the intravesical pressure was recorded on a recorder via a pressure transducer. After the rhythmic contractions became constant, test compounds dissolved or suspended in 0.5% aqueous tragacanth solution were administered via the cannula inserted for intraduodenal administration. The effect of each compound on the contractile frequency was investigated every 15 minutes till two hours after the administration.
The inhibitory rate on the contractile frequency (two hours) was expressed as the mean value of the inhibitory rates at an every 15-minute interval for two hours after the administration, which was determined based on the contractile frequency for 15 minutes before the administration.

| SMILES | Effect on the amplitude of contraction |
| --- | --- |
| Cc1cc2c(cc1C)CCC(CCN1CCCCC1)=C2 [Ex. 43, 1-[2-(3,4-dihydro-6,7-dimethyl-2-naphthalenyl)ethyl]piperidine] | suppressed the amplitude of contraction |
| Cc1cc2c(cc1C)CCC(CCN1CCCCCC1)=C2 [Ex. 44] | suppressed the amplitude of contraction |
| Cc1cc2c(cc1C)CCC(CCN1CCCCCCC1)=C2 [Ex. 45] | suppressed the amplitude of contraction |
| CCc1cc2c(cc1CC)CCC(CCN1CCCC1)=C2 [Ex. 46, 1-[2-(6,7-diethyl-3,4-dihydro-2-naphthalenyl)ethyl]pyrrolidine] | suppressed the amplitude of contraction |
| C1=C(CCN2CCCC2)CCc2cc3c(cc21)CCC3 [Ex. 47] | suppressed the amplitude of contraction |
